Values of other authors, collected in patent US8486683B2, “Beta-glucosidase enzymes” (Iogen Energy Corporation, priority 2009, dated 2013).
The name of at least one read-out is uncertain.

Tested on: Beta-glucosidases from most fungi
Conditions: literature, read-out: binding constants for cellobiose (KG2); cited from earlier work

Q: For OC[C@H]1O[C@@H](O[C@H]2[C@H](O)[C@@H](O)C(O)O[C@@H]2CO)[C@H](O)[C@@H](O)[C@@H]1O (stereo partly drawn) [cellobiose, gluco-beta-(1,4)-glucoside], which Km is on record?
A: Its Km is 200 to 2000 µM.
